The list shows a part of the results. Further columns of the screen follow, without active or inactive calls. Compounds called inactive in the main read-out are mostly missing here. Potencies come from curve fits of mixed quality, noted in brackets.
Assay: qHTS Assay for Lipid Storage Modulators in Drosophila S3 Cells;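 on cell number change: cells counted by Cell Tracker Red CMTPX staining in the red channel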
Settings: BODIPY lipid droplet fluorescence, 18-24 h; for cell number change: measured here: cell count max response, cells fed with added oleic acid
How it was run: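 Laser-scanning cytometry quantifies lipid droplet accumulation (500–530 nm total intensity; droplet/cell object ratio) in oleic acid-fed (400 uM added) Drosophila S3 cells treated with a concentration series. 20 uM Triacsin C defined 100% inhibition.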

[1] = measured here: lipid fluorescence (Fed channel) AC50, cells fed with added oleic acid
[2] = measured here: cell number channel AC50, cells fed with added oleic acid

SMILES	cell number change [%]	AC50 [1]	AC50 [2]
Cc1ccc2c(c1)[C@H]1[C@H](CO2)[C@H](c2ccccc2)[C@]2(C)C(=O)NCC(=O)N12	17.4	0.517 µM [rising, partial curve]	
Cc1ccc(NC(=O)CN2CCCCCC2)cc1Br		0.58 µM [falling, single point]	
Cc1ccccc1OCC(=O)N/N=C/c1ccc(Sc2nc3ccccc3s2)o1		3.26 µM [rising, partial curve]	5.17 µM [rising, partial curve]
CC(C)(C)c1csc(NC(=O)c2ccc(Cl)s2)n1	-38.4	29.1 µM [falling, single point]	4.61 µM [falling, single point]
N#Cc1ccccc1OCC(=O)OCC(=O)NCc1ccc2c(c1)OCO2	29.5	5.17 µM [rising, partial curve, poor fit]	2.91 µM [rising, full curve, poor fit]
Cc1cc(C)n(Cc2ccc(C(=O)NCc3ccco3)o2)n1	54.8	9.2 µM [rising, partial curve]	3.26 µM [rising, full curve, poor fit]
COc1ccc(CN2C(=O)c3cccnc3C2=O)cc1S(=O)(=O)NCc1ccccc1	-16.4	6.51 µM [falling, single point]	
O=C(Nc1ccccc1N1CCCC1)c1ccc2c(c1)OCO2	58.3	0.58 µM [rising, single point]	1.46 µM [rising, partial curve]
CCCCn1c(=O)[nH]c(=O)c2c1nc(COC(=O)c1c(C)noc1C)n2CCC	-19.4	0.517 µM [rising, full curve]	
CN(C)S(=O)(=O)c1ccc(C(=O)OCCN=C2NS(=O)(=O)c3ccccc32)cc1	2.88	6.51 µM [rising, single point]	
Nc1nc2nc(-c3ccccc3)cc(=O)n2[nH]1	16.5	0.231 µM [falling, full curve, poor fit]	
COC(=O)c1ccccc1NS(=O)(=O)c1ccc(Cl)nc1	45.2		14.6 µM [rising, single point]
Cc1ccc(NC(=O)C2CCN(S(=O)(=O)c3ccc4c(c3)CCCC(=O)N4)CC2)c(Br)c1	0.76	10.3 µM [rising, partial curve]	
Cc1ccccc1N1C(=O)Cc2ccccc2C1=O	-5.88	0.206 µM [rising, single point]	
Cc1cc(C(=O)CCC(=O)N2CCN(S(=O)(=O)c3cccs3)CC2)c(C)s1	56.9	0.651 µM [rising, single point]	5.8 µM [rising, full curve]
O=C(c1ccco1)N1CCN(C(=O)c2cccs2)CC1	-18.2	18.4 µM [falling, partial curve, poor fit]	
OCCN1CCN(c2nc(N3CCCCC3)nc(N3CCCCC3)n2)CC1	14.1		6.51 µM [rising, single point]
COC(=O)C12CCC3(SCCS3)C(C(=O)OC)(CCC13SCCS3)C2	-32.1	0.82 µM [falling, full curve, poor fit]	0.731 µM [falling, full curve, poor fit]
Cc1ccccc1N/N=C/c1ccc(C#N)cc1	38.3	1.84 µM [rising, partial curve]	8.2 µM [rising, partial curve]
CCn1c(=O)c(C(=O)Nc2ccc(C)cc2)c(O)c2ccccc21	17.9	23.1 µM [rising, single point]	
COc1ccc(/C=C/C(=O)OCC(=O)NC2CCCC2)c(OC)c1	-13.1	4.11 µM [falling, single point]	
O=C(CN(CCc1ccccc1)C(=O)Cn1nnc(-c2cccs2)n1)NCc1ccco1	6.98	8.2 µM [rising, partial curve]	
Nc1nc2nc(-c3cccs3)cc(C(F)(F)F)n2n1	-4.78	6.51 µM [falling, single point]	
CCC1(C)NC(=O)N(CC(=O)NCC(=O)Nc2c(C)cc(C)cc2C)C1=O (stereo unspecified)	-0.775	0.259 µM [rising, full curve, poor fit]	0.411 µM [rising, full curve, poor fit]
O=C(Nc1ccc(F)cc1)c1ccc(C(=O)N2CCOCC2)cc1	-0.656	0.0058 µM [falling, full curve, poor fit]	
O=C(COC(=O)c1ccc(S(=O)(=O)N2CCCCCC2)cc1)NCc1ccc(F)cc1	-62	29.1 µM [falling, partial curve]	18.4 µM [falling, single point]
CC(=O)c1cccc(NC(=O)Cn2cnc(S(=O)(=O)N3CCOCC3)c2)c1	-0.943		
COc1ccc2c(c1)C1=NN(/C(C)=C/C(C)=O)C(c3ccc(F)cc3)C1CC2 (stereo unspecified)	20.7	4.11 µM [falling, single point]	

SMILES	cell number change [%]	AC50 [1]	AC50 [2]
CSc1ccc(CNC(=O)C2Cc3cc(S(=O)(=O)N4CCCC4)ccc3N2C(C)=O)cc1 (stereo unspecified)	-22.7	29.1 µM [rising, single point]	
O=C(CCNS(=O)(=O)c1ccc(Br)cc1)NCc1ccc2c(c1)OCO2	0.304		
N#CCc1c(C#N)c(N)nc(N2CCN(S(=O)(=O)c3ccccc3F)CC2)c1C#N	42.7	29.1 µM [rising, single point]	25.9 µM [rising, single point]
COc1ccc(NC(=O)Cn2nnc(C(=O)Nc3ccccc3C)c2N)cc1	41.1	7.31 µM [rising, partial curve]	14.6 µM [rising, partial curve, poor fit]
CCc1cccc(C)c1NC(=O)CSc1nnc(-c2cc3cc(Br)ccc3o2)n1CC		1.84 µM [rising, partial curve]	1.84 µM [rising, partial curve]
CCc1nnc(NC(=O)CSc2nnc(-c3ccccc3OC)n2-c2ccc(C)cc2)s1	72.4		14.6 µM [rising, partial curve]
COc1cccc(CN2CCC(C(=O)N3CCN(c4ccccc4F)CC3)CC2)c1OC	18.3	3.26 µM [falling, single point]	0.00651 µM [rising, full curve, poor fit]
Cc1ccc(CNC(=O)C2CCN(S(=O)(=O)c3ccc4c(c3)CC(C)N4C(=O)C3CC3)CC2)cc1 (stereo unspecified)	19.7	29.1 µM [rising, single point]	
CC(C)OP(=O)(OC(C)C)C(C)NC(=O)Cc1ccccc1 (stereo unspecified)	32.3	18.4 µM [rising, single point]	
Cc1cc(C)n(Cc2cccc(C(=O)N/N=C/c3ccncc3)c2)n1	3.23	3.26 µM [rising, single point]	
COc1cc(C(=O)Nc2oc(-c3ccccc3)c(-c3ccccc3)c2C#N)cc(OC)c1OC	22.9		0.082 µM [rising, full curve, poor fit]
CCOC(=O)N1CCN(C(=O)CCCn2c(=S)[nH]c3ccc(Br)cc3c2=O)CC1	-59.4	6.51 µM [falling, partial curve]	18.4 µM [falling, partial curve]
CN(C(=O)COC(=O)c1ccc(Cl)s1)C1(C#N)CCCCC1	22.5		
CCOc1ccccc1CN1CCNC(=O)C1CC(=O)NC1CCCCC1 (stereo unspecified)	10.4	6.51 µM [falling, single point]	
Cc1ccc([N+](=O)[O-])cc1NC(=O)c1cccnc1	47.3		29.1 µM [rising, partial curve, poor fit]
CC1CCc2c(sc3nc4n(c(=O)c23)CCS4)C1 (stereo unspecified)	-1.45	0.58 µM [falling, single point]	
Cc1cc(C(=O)N/N=C/c2cc(Br)ccc2OC(=O)c2ccc(Br)cc2)n[nH]1	-19.8	14.6 µM [falling, partial curve]	
CC(C)COc1ccc(-c2nnc(-c3ccco3)o2)cc1	-33.2		29.1 µM [falling, single point]
Cc1cccn2c(=O)c3cc(C(=O)N4c5ccccc5CC4C)n(C)c3nc12 (stereo unspecified)	7.76	6.51 µM [rising, single point]	
Cc1ccc(C)c(NC(=O)CCN2CCC(C)CC2)c1	6.61	6.51 µM [rising, single point]	
CCc1ccc(OCC(=O)NNC(=O)c2cc(S(=O)(=O)N3CCOCC3)ccc2N2CCCC2)cc1	8.01	6.51 µM [falling, partial curve, poor fit]	
COc1ccc(CCNC(=O)C2CCCN2C(=O)Nc2cccc(C(C)=O)c2)cc1OC (stereo unspecified)	-0.908		
O=C(NCCCc1nc2ccccc2[nH]1)c1cccs1	3.73	0.116 µM [rising, full curve, poor fit]	
CCOC(=O)/C(C(N)=NCCCO)=C(/O)c1ccccc1	-18.8		
COc1cccc(N2CCN(S(=O)(=O)c3c(C)[nH]c(C)c3C(=O)N3CCCCC3)CC2)c1	-4.29	29.1 µM [rising, single point]	
Cc1ccc2c(C(=O)CN3CCOCC3)c(C)[nH]c2c1		4.11 µM [rising, single point]	1.3 µM [rising, partial curve]
O=C(CN(Cc1ccccc1)C(=O)CNS(=O)(=O)c1ccc(Cl)cc1)NCC1CCCO1 (stereo unspecified)	28.2		

Laid out differently: entries from further up.
SMILES | cell number change [%] | AC50 [1] | AC50 [2]
O=C(Nc1ccccc1N1CCCC1)c1ccc2c(c1)OCO2 | 58.3 | 0.58 µM [rising, single point] | 1.46 µM [rising, partial curve]
CCc1nnc(NC(=O)CSc2nnc(-c3ccccc3OC)n2-c2ccc(C)cc2)s1 | 72.4 |  | 14.6 µM [rising, partial curve]
CC(C)OP(=O)(OC(C)C)C(C)NC(=O)Cc1ccccc1 (stereo unspecified) | 32.3 | 18.4 µM [rising, single point] | 

Source: PubChem BioAssay AID2685 (National Center for Advancing Translational Sciences (NCATS), 2010)
